Source: publication PMC7704642
No constants are given. Whether binding was seen depends on the method and setting. A result given as binding can be weak or reduced; the word gives no strength.

Chains of the proteins cited; added tags and fusions are not shown. Lines headed by an entry give the natural chain unless they say otherwise; changes in a name come on top.
UniProt Q5JIY4: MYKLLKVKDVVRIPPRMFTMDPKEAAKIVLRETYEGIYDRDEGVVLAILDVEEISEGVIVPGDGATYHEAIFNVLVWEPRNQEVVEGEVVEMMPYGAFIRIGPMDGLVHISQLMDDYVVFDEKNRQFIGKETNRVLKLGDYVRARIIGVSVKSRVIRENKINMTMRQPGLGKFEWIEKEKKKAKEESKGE

Legend:
[1] = target: RpoE, stalk subunit of Thermococcus kodakarensis RNA polymerase (Thermococcus kodakarensis) (UniProt Q5JIY4); test: cryo-EM structure; RNAP–TFEα binary complex: 3 nmole RNAP mixed with 5-fold molar excess of TFEα at room temperature for 1 h, Superose 6 in 10 mM Tris-HCl (pH 8.0), 400 mM NaCl, 5 mM DTT, 1% glycerol, 0.1 mM EDTA; peak fraction used for EM; both purified
[2] = target: RpoB, second largest subunit of Thermococcus kodakarensis RNA polymerase (Thermococcus kodakarensis); test: cryo-EM structure; RNAP–TFEα–DNA ternary complex: 3 nmol RNAP–TFEα binary complex mixed with 3-fold molar excess of annealed gdh promoter fork-junction DNA at room temperature for 30 min, Superose 6 in 10 mM Tris-HCl (pH 8.0), 400 mM NaCl, 5 mM DTT, 1% glycerol, 0.1 mM EDTA; both purified
[3] = target: RpoE, stalk subunit of Thermococcus kodakarensis RNA polymerase (Thermococcus kodakarensis) (UniProt Q5JIY4); test: as above

Measured: binding

B1: Thermococcus kodakarensis TFEα (protein, UniProt Q5JDD5 1-185)
chain: MAKRKNKELLEIAQEIGGEEAVEVVKALEKMKEATDEELAEATGIRVNTVRRILYMLNDEGLADFKRIRDPETGWYYYYWRLETKKLPEIIRSRKMAELKKLKEMLEEETSEIYYWCGTEGHPKLTFDEAMEYEFQCPICGKMLMQYDNTHIIEELKRRIEELEIELGLKKKPRKTSKKKKSRSE
binds: all assays above
